Laboratory results: PubChem BioAssay AID504784 (Drosophila RNAi Screening Center, 2011)

- Purpose: 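Genome-wide knock-down for genes giving too much or too little stored lipid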 (primary screen)
- System: Drosophila Kc167 embryonic cells
- Knock-down reagent: long dsRNA against Drosophila genes, about 250 ng dsRNA per well
- Duration: 4 days
- Treatment: cells fed 400 µM oleic acid bound to BSA
- Measured: 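Microscope images give a droplet-to-nucleus area ratio, taken as log and converted to a screen-wide B-score; higher values mean greater lipid storage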
- Scale: droplet/nuclear area B-score: higher = more stored lipid (overstorage)
In all, the deposit lists about 17,000 reagents; below is a random part of those that have a named target and a result. 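Each column is one replicate's B-score; the combined score over replicates was not deposited, so single values may mislead.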 A plus sign joins genes that one reagent is predicted to hit. Not all columns of the deposit are shown. No sequences are given here.

The opening 3 entries, ahead of the listing:
gene	amplicon	droplet/nuclear area B-score, replicate 1	droplet/nuclear area B-score, replicate 2
CG11583	DRSC08202	0.992	
lbk	DRSC07178	-0.00505	0.507
CG42749	DRSC18091	-0.612	-0.947

The list itself, repeating the preview:
gene	amplicon	droplet/nuclear area B-score, replicate 1	droplet/nuclear area B-score, replicate 2
CG11583	DRSC08202	0.992	
lbk	DRSC07178	-0.00505	0.507
CG42749	DRSC18091	-0.612	-0.947
CG42749	DRSC18092	-0.0386	
CG8924	DRSC20122	0.561	-0.715
CG8924	DRSC23027	-1.45	0.697
CG15818	DRSC02505	-0.616	0.111
Lip4	DRSC02930	0.613	-0.296
CG14609	DRSC12553	1.51	0.101
CG32295	DRSC23259	-0.847	-0.243
Osi19	DRSC12569	2.77	2.4
CG3704	DRSC18174	0.519	-1.92
CG3704	DRSC18645	0.174	0.654
CG30419	DRSC04208	-0.592	-0.797
CG30419	DRSC04209	-1.92	0.528
CG30419	DRSC22519	0.505	-0.157
rump	DRSC16480	-0.0627	8.42
CG17493	DRSC03798	3.92	5.11
Mybbp1A	DRSC18788	0.768	
Gr9a	DRSC22506	1.64	-1.2
SLC22A	DRSC11826	-0.251	-1.73
SLC22A	DRSC11827	-0.724	0.00375
Sgs5bis	DRSC16263	-1.34	-1.25
CG8483	DRSC16430	-0.873	8.94
CG7794	DRSC16313	-0.457	-0.0221
CG11155	DRSC17205	-1.48	-0.00339
CG15186	DRSC12566	-0.226	-0.0974
Eo	DRSC20187	0.996	-0.447
CG6055	DRSC02923	-2.06	1.68
Cpr65Eb	DRSC11026	0.00748	-0.685
CG34309	DRSC14838	-0.319	0.511
IleRS	DRSC11667	-0.303	-1.25
GstE8	DRSC06678	-1.42	-0.709
CG3701 (retired record)	DRSC04408	-0.0584	-1.73
CG3701 (retired record)	DRSC04409	-0.0736	0.15
Eig71Ec	DRSC11150	1.51	-0.213
CG6195	DRSC15989	-0.721	0.322
CG32544	DRSC20033	0.0293	1.95
CG4080	DRSC10398	-0.24	-1.6
Rrp45	DRSC20198	-0.688	-0.227
CG31688	DRSC02682	-0.559	-0.0149
Su(var)205	DRSC03446	-1.86	-2.43
sphe	DRSC20203	-3.45	-0.264
Cyp28d2	DRSC03299	-1.63	0.00446
snRNA:U1:95Cc + snRNA:U1:95Cb	DRSC13641	-0.372	2.47
Obp99d	DRSC15046	-0.0593	2.46
Ythdc1	DRSC08141	-0.22	-0.983
CG12935	DRSC06248	0.882	-0.773
Peritrophin-A	DRSC20570	0.00917	0.363
Mis12	DRSC10299	0.824	1.32
CG31019	DRSC13994	1.4	-1.15
CG11980	DRSC14456	0.953	0.652
CG14074	DRSC10079	-3.46	0.281
CG14110	DRSC10113	0.835	-0.208
vimar	DRSC05026	-1.75	-1.68
ppk7	DRSC03236	0.0586	-0.546
Gbp2	DRSC06069	0.00417	-0.176
CG33514	DRSC08471	0.689	1.15
CG33514	DRSC08472	0.209	-0.0911
CG33514	DRSC21670	0.442	0.371
Pp1alpha-96A	DRSC16795	-0.625	-0.0207
Pp1alpha-96A	DRSC23320	0.63	0.971
TwdlX	DRSC19151	0.079	-1.72
CG5715	DRSC15860	-0.0183	-2.05
Hml	DRSC11183	1.9	-0.854
dock	DRSC00812	-0.826	1.71
Loxl1	DRSC14303	-0.638	0.0135
CG3744	DRSC15511	-0.373	2.37
CG8818	DRSC07275	1.28	-0.761
CG15649	DRSC04240	-0.904	-1.53
CR30409	DRSC22058	-1.67	-1.19
Nin	DRSC02007	0.185	0.899
Nepl12	DRSC16411	0.00293	-0.388
AGO3	DRSC21386	-1.1	1.1
Orct2	DRSC14613	-0.376	0.963
CG12929	DRSC06242	-1.53	0.708
Gapdh1	DRSC07433	-1.23	-0.985
CG5854	DRSC15894	-0.56	-0.000428
CG33267	DRSC09120	0.313	1.79
ort	DRSC16240	0.227	-0.173
CG15742	DRSC19708	-0.598	-0.808
CG4053	DRSC15538	0.716	-1.61
tos	DRSC03624	-0.0212	-1.03
